Source: PubChem BioAssay AID504749 (NCATS, 2011).

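Malaria parasite (P. falciparum) lines kept in red blood cells; parasite DNA is measured by SYBR Green fluorescence after lysis, 72 h after compound addition.
Each compound was titrated across a series from about 0.000037 to 29 µM.
The number is the fitted AC50, the concentration giving a half-maximal change in signal; a lower value means higher potency, whether the curve shows a decrease or an increase.
Calls follow the curve class and fit quality: every row here is inconclusive, covering signal-raising curves and weak, poorly fitted, partial or highest-dose-only inhibition curves.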

Values are in nM.
All entries here are filed as inconclusive.
Only part of the assay is shown, chiefly results filed as inconclusive.
A potency from a partial, single-point or poor curve is only a rough figure.
The first word of each remark tells which way the curve ran; it can be opposite to the aim of the assay.

| # | structure | tested on / at | Potency (nM) | remark |
|---|---|---|---|---|
| 1 | `O=C(O)c1cn(-c2ccc(F)cc2)c2cc(N3CCNCC3)c(F)cc2c1=O` | CP335 | 13459 | inhibitor, partial curve |
| 2 | `O=C(O)c1cn(-c2ccc(F)cc2)c2cc(N3CCNCC3)c(F)cc2c1=O` | Dd2 | 15848 | inhibitor, single point |
| 3 | `O=C(O)c1cn(-c2ccc(F)cc2)c2cc(N3CCNCC3)c(F)cc2c1=O` | CP185 | 7080 | inhibitor, partial curve |
| 4 | `O=C(O)c1cn(-c2ccc(F)cc2)c2cc(N3CCNCC3)c(F)cc2c1=O` | CP194 | 15101 | inhibitor, single point |
| 5 | `O=C(O)c1cn(-c2ccc(F)cc2)c2cc(N3CCNCC3)c(F)cc2c1=O` | DIV14 | 15101 | inhibitor, partial curve, poor fit |
| 6 | `O=C(O)c1cn(-c2ccc(F)cc2)c2cc(N3CCNCC3)c(F)cc2c1=O` | CP211 | 15101 | inhibitor, single point |
| 7 | `O=C(O)c1cn(-c2ccc(F)cc2)c2cc(N3CCNCC3)c(F)cc2c1=O` | CP329 | 8492 | inhibitor, partial curve, poor fit |
| 8 | `O=C(O)c1cn(-c2ccc(F)cc2)c2cc(N3CCNCC3)c(F)cc2c1=O` | P94_40 | 6310 | inhibitor, partial curve |
| 9 | `O=C(O)c1cn(-c2ccc(F)cc2)c2cc(N3CCNCC3)c(F)cc2c1=O` | GB4 | 9528 | inhibitor, partial curve |
| 10 | `O=C(O)c1cn(-c2ccc(F)cc2)c2cc(N3CCNCC3)c(F)cc2c1=O` | CP262 | 11995 | activator, single point |
| 11 | `O=C(O)c1cn(-c2ccc(F)cc2)c2cc(N3CCNCC3)c(F)cc2c1=O` | CP268 | 5358 | inhibitor, partial curve, poor fit |
| 12 | `O=C(O)c1cn(-c2ccc(F)cc2)c2cc(N3CCNCC3)c(F)cc2c1=O` | CP297 | 9528 | inhibitor, partial curve, poor fit |
| 13 | `O=C(O)c1cn(-c2ccc(F)cc2)c2cc(N3CCNCC3)c(F)cc2c1=O` | CP265 | 5012 | inhibitor, partial curve |
| 14 | `O=C(O)c1cn(-c2ccc(F)cc2)c2cc(N3CCNCC3)c(F)cc2c1=O` | CP203 | 19011 | inhibitor, single point |
| 15 | `O=C(O)c1cn(-c2ccc(F)cc2)c2cc(N3CCNCC3)c(F)cc2c1=O` | CP315 | 21331 | inhibitor, partial curve, poor fit |
| 16 | `O=C(O)c1cn(-c2ccc(F)cc2)c2cc(N3CCNCC3)c(F)cc2c1=O` | CP291 | 6012 | inhibitor, partial curve |
| 17 | `O=C(O)c1cn(-c2ccc(F)cc2)c2cc(N3CCNCC3)c(F)cc2c1=O` | DFO2036 | 11220 | inhibitor, single point |
| 18 | `O=C(O)c1cn(-c2ccc(F)cc2)c2cc(N3CCNCC3)c(F)cc2c1=O` | CP238 | 12589 | inhibitor, single point |
| 19 | `O=C(O)c1cn(-c2ccc(F)cc2)c2cc(N3CCNCC3)c(F)cc2c1=O` | CP201 | 10690 | inhibitor, partial curve, poor fit |
| 20 | `O=C(O)c1cn(-c2ccc(F)cc2)c2cc(N3CCNCC3)c(F)cc2c1=O` | AA1029 | 5623 | inhibitor, partial curve |
| 21 | `O=C(O)c1cn(-c2ccc(F)cc2)c2cc(N3CCNCC3)c(F)cc2c1=O` | CP269 | 10690 | inhibitor, single point |
| 22 | `O=C(O)c1cn(-c2ccc(F)cc2)c2cc(N3CCNCC3)c(F)cc2c1=O` | CP256 | 11220 | inhibitor, single point |
| 23 | `O=C(O)c1cn(-c2ccc(F)cc2)c2cc(N3CCNCC3)c(F)cc2c1=O` | CP252 | 17782 | inhibitor, single point |
| 24 | `O=C(O)c1cn(-c2ccc(F)cc2)c2cc(N3CCNCC3)c(F)cc2c1=O` | 7G8 | 12589 | inhibitor, single point |
| 25 | `O=C(O)c1cn(-c2ccc(F)cc2)c2cc(N3CCNCC3)c(F)cc2c1=O` | ATS95 | 12589 | inhibitor, single point |
| 26 | `O=C(O)c1cn(-c2ccc(F)cc2)c2cc(N3CCNCC3)c(F)cc2c1=O` | CP215 | 5358 | inhibitor, partial curve |
| 27 | `O=C(O)c1cn(-c2ccc(F)cc2)c2cc(N3CCNCC3)c(F)cc2c1=O` | TAB109 | 5012 | inhibitor, partial curve |
| 28 | `O=C(O)c1cn(-c2ccc(F)cc2)c2cc(N3CCNCC3)c(F)cc2c1=O` | ICS | 8912 | inhibitor, single point |
| 29 | `O=C(O)c1cn(-c2ccc(F)cc2)c2cc(N3CCNCC3)c(F)cc2c1=O` | CP325 | 11995 | inhibitor, single point |
| 30 | `O=C(O)c1cn(-c2ccc(F)cc2)c2cc(N3CCNCC3)c(F)cc2c1=O` | CP237 | 17782 | inhibitor, single point |
| 31 | `O=C(O)c1cn(-c2ccc(F)cc2)c2cc(N3CCNCC3)c(F)cc2c1=O` | TAB165 | 7080 | inhibitor, partial curve |

The first 2 entries again:

structure,tested on / at,Potency (nM),remark
O=C(O)c1cn(-c2ccc(F)cc2)c2cc(N3CCNCC3)c(F)cc2c1=O,CP335,13459,"inhibitor, partial curve"
O=C(O)c1cn(-c2ccc(F)cc2)c2cc(N3CCNCC3)c(F)cc2c1=O,Dd2,15848,"inhibitor, single point"